Data source: PubChem BioAssay AID743454 (Peter MacCallum Cancer Centre, 2014)
This is one part, drawn at random, of about 18,000 deposited reagents. 450 of them (2.5%) were called active. 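Single biological run; no consistent viability z cut-off exists, so the class columns, not z-scores, define the calls.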 A number with no mark means an inactive call. No sequences are given here.

- Aim: 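Search for knock-downs that restore vorinostat killing in resistant colon cancer cells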 (primary screen)
- Cell system: human HCT116-VR colon cancer cells, selected for vorinostat resistance
- Reagent: siRNA pool against human genes, 40 nM siRNA pool
- Timing: vorinostat for 24 h, read-out about 72 h after transfection
- Conditions: vorinostat at 2.5 µM final
- Measured: 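Two measures, CellTiter-Fluor viability and luminescent caspase 3/7 activity, each as fold change against same-plate mock wells, mean of duplicates, then screen-wide robust z-score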
- Reading the numbers: viability robust z-score: higher = more viable cells than screen typical; caspase robust z-score: higher = more caspase 3/7 activity than screen typical
- Call rule: 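Hits are knock-downs in viability class RV1/RV2 or caspase class CA1/CA2, excluding ones that killed cells in the no-drug cell-count arm; hits then retested with single siRNAs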

target gene | viability hit class | caspase hit class | viability robust z-score | caspase robust z-score
PELI1 | no change | no change | -3.21 | -0.84
GABBR1 | no change | no change | 0.63 | 0.9
KCNE2 | no change | no change | 1.55 | -0.44
EMILIN2 | no change | no change | -0.1 | -0.38
ALDH1L2 | no change | no change | -0.61 | 1.63
LINC00518 | no change | no change | -0.5 | 1.07
SORCS1 | no change | no change | 0.18 | -1.22
KRTAP1-3 | no change | no change | -0.26 | -0.38
SETX | no change | no change | -4.6 | 2.82
ANO10 | no change | no change | -1.05 | 2.28
CP | no change | no change | 1 | -0.68
RET | no change | no change | 1.14 | -0.86
BEX3 | no change | no change | -1.46 | 0.94
ADARB2 | no change | no change | 0.43 | -0.72
RTP4 | no change | no change | -0.02 | -0.46
GFI1B | no change | no change | -0.04 | 0.74
CATSPERD | no change | no change | 0.22 | -0.58
NPHP4 | no change | no change | -0.78 | -1.27
BMPER | no change | no change | -0.46 | -0.45
CATSPER2 | no change | no change | 1.54 | -0.15
SGCB | no change | no change | -0.1 | 0.4
GHITM | no change | no change | 0.8 | 0.05
PCDHB14 | no change | no change | 1.06 | -0.29

Look-ups from the list:
For “caspase hit class”, SORCS1 is entered as no change
Value for SGCB in “caspase robust z-score”: 0.4
Under “caspase robust z-score”, RET is entered as -0.86
